Results on one sequence are retold here after PMC9364023, “In vitro single molecule and bulk phase studies reveal the AP-1 transcription factor cFos binds to DNA without its partner cJun” (The Journal of Biological Chemistry, 2022).

Sequences of proteins named here, by UniProt entry; tags and fusion partners are left off. Residues count along the entry.
UniProt P05412, 252-308: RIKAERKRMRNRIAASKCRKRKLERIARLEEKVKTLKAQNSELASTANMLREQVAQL

Construct, isoform or probe ends are uncertain for at least one entry. At least one verdict rests on a figure or table, not on a statement of the authors.

The series addresses cJun-mNeonGreen + cJun-mCherry (UniProt P05412). Nature of the series: FRET excitation spectra. The note with it: 500 nM DNA, 590 nm peak with DNA suggests conformational effect upon binding; FRET: HSABC + 2.5 mM DTT, room temperature; recombinant protein; protein details: mNeonGreen or mCherry fusion, C-terminal His6.

For the sequence “GTCAGTCAGTGACTCAATCGGTCA (double strand) [TRE]”, the binding result is listed as “binds”.
